The target in assay [1] is C-terminal 270-kDa fragment of recombinant polydom (mouse) (UniProt A2AVA0). Put plainly: anti-FLAG affinity purification of recombinant polydom, SDS-PAGE and N-terminal sequencing.
The target is the same in assay [2]. In words: co-precipitation from spent medium with anti-FLAG beads or Ni-NTA beads, immunoblotting. On the technique in general: In western blotting, separated proteins are transferred to a membrane and probed.

This note sets out measurements from patent US20150086557A1, “NOVEL INTEGRIN alpha9 beta1 LIGAND AND USES THEREOF” (OSAKA UNIVERSITY, priority 2012, published 2015).

No constants are given. Whether binding was seen depends on the method and setting. For some assays here: Binding seen in cells or lysates may run through a third protein. Some results given as binding are weak or reduced against the parent protein; the word gives no strength.

B1: N-terminal 115-kDa fragment of recombinant polydom (protein, not shown: small tags and cut ends)
chain: WTNFQPVAPSLNFSFRLFPEASPGALGRLAVPPASSEEEAAGSKVERLGRAFRSRVRRLRELSGSLELVFLVDESSSVGQTNFLNELKFVRKLLSDFPVVSTATRVAIVTFSSKNNVVARVDYISTSRAHQHKCALLSREIPAITYRGGGTYTKGAFQQAAQILRHSRENSTKVIFLITDGYSNGGDPRPIAASLRDFGVEIFTFGIWQGNIRELNDMASTPKEEHCYLLHSFEEFEALARRALHEDLPSGSFIQEDMARCSYLCEAGKDCCDRMASCKCGTHTGQFECICEKGYYGKGLQHECTACPSGTYKPEASPGGISTCIPCPDVSHTSPPGSTSPEDCVCREGYQRSGQTCEVVHCPALKPPENGFFIQNTCKNHFNAACGVRCRPGFDLVGSSIHLCQPNGLWSGTESFCRVRTCPHLRQPKHGHISCSTAEMSYNTLCLVTCNEGYRLEGSTRLTCQGNAQWDGPEPRCVERHCATFQKPKGVIISPPSCGKQPARPGMTCQLSCRQGYILSGVREVRCATSGKWSAKVQTAVCKDVEAPQISCPNDIEAKTGEQQDSANVTWQVPTAKDNSGEKVSVHVHPAFTPPYLFPIGDVAITYTATDSSGNQASCTFYIKVIDVEPPVIDWCRSPPPIQVVEKEHPASWDEPQFSDNSGAELVITSSHTQGDMFPHGETVVWYTATDPSGNNRTCDIHIVIKGSPCEVPFTPVNGDFICAQDSAGVNCSLSCKEGYDFTEGSTEKYYCAFEDGIWRPPYSTEWPDCAIKRFANHGFKSFEMLYKTTRCDDMDLFKKFSAAFETTLGNMVPSFCNDADDIDCRLEDLTKKYCIEYNYNYENGFAIGPGGWGAGNRLDYSYDHFLDVVQETPTDVGKARSSRIKRTVPLSDPKIQLIFNITASVPLPEERNDTLELENQQRLIKTLETITNRLKSTLNKEPMYSFQLASETVVADSNSLETEKAFLFCRPGSVLRGRMCVNCPLGTSYSLEHSTCESCLMGSYQDEEGQLECKLCPPRTHTEYLHSRSVSECKAQCKQGTYSSSGLETCESCPLGTYQPEFGSRSCLLCPETTTTVKRGAVDISACGVPCPVGEFSRSGLTPCYPCPRDYYQPNAGKSFCLACPFYGTTTITGATSITDCSSFSSTFSAAEESIVPL
Regarding B1, the binding result in assay [1] and in assay [2] was “binds” in each case.
